According to paper PMC5553809:

Target: Dps (UniProt P0ABT2)
Assay: EMSA
Conditions: band-shift buffer, recombinant protein, probe letters rebuilt from the primers and the genome

Sequence | binding result (positive control in all band shifts) | binding result (remained unbound in vitro)
ATGCAGATCTTCTCGCTACTTTTCCTCTACACCGTCTTTATATATCGAATTATGCAAAAGCATATTTATTCCGAAAATTCCTGGCGAGCAGATAAATAAGAATTGTTCTTATCAATATATCTAACTCATTGAATCTTTATTAGTTTTGTTTTTCACGCTTGTTACCACTATTAGTGTGATAGGAACAGCCAGAATAGCGGAACACATAGCCGGTGCTATACTTAATCTCGTTAATTACTGGGACATAACATCTAGAGGA (double strand) [dps_short] | binds | 
TTTGGCAGAGGTTAAGCGCTTGCTTTGCGCGCACGTTCGGGAACTGCATGACTTTTATGGTCCGGCAAAAGGGTACCGAATTGCACGTAAACACGTTTCCTGGTATCTCCAGGAACACGCTCCAAATGACCAGTTTCGGCGCACATTCAACGCCATTGAGGATGCCAGCGAACAGCTGGAGGCGTTGGAGGCATACTTCGAAAATTTTGCGTAAACAGAAATAAAGAGCTGACAGAACTATGTTCGAACAACGCGTAAATTCTGACGTACTGACCGTTTCTACCGTTAACTCTCAGGATCAGGTAACCCAAAAACCCCTGCGTGACTCGGTTAAACAGGCACTGAAGAACTATTTTGCTCAACTGAATGGTCAGGATGTGAATGACCTCTATGAGCTGGTAC (double strand) [fis_up] |  | no binding

The exact form of at least one protein or probe is not confirmed. Negatives hold for the conditions tested.
